{"sequences": {"note": "Amino acid sequences for entries named in this document (tags omitted). A change or cut given only in a name is not applied to a line headed by its entry.", "UniProt Q9BYV8": "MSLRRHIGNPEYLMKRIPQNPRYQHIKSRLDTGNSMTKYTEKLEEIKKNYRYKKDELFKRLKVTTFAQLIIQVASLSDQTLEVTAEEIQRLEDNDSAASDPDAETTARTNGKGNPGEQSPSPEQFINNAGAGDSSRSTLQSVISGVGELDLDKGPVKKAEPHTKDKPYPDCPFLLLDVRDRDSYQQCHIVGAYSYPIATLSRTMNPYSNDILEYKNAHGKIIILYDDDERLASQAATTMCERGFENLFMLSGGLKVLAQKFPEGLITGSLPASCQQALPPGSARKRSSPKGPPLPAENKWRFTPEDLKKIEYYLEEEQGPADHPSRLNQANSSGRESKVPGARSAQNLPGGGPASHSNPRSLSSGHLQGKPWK", "UniProt P50990": "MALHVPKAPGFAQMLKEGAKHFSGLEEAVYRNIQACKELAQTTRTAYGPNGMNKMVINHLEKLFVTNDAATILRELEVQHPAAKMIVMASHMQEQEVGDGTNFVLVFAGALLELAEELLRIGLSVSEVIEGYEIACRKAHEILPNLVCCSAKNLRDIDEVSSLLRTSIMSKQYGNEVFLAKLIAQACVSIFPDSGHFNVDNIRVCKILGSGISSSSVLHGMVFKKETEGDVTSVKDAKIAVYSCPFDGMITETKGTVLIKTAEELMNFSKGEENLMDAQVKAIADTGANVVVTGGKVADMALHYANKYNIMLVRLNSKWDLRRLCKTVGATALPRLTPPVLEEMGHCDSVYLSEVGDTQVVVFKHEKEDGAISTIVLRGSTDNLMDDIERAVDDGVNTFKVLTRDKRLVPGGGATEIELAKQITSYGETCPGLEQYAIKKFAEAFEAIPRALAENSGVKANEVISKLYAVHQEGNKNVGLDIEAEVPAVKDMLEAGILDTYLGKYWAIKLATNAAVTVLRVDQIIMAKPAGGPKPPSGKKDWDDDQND", "UniProt O95319": "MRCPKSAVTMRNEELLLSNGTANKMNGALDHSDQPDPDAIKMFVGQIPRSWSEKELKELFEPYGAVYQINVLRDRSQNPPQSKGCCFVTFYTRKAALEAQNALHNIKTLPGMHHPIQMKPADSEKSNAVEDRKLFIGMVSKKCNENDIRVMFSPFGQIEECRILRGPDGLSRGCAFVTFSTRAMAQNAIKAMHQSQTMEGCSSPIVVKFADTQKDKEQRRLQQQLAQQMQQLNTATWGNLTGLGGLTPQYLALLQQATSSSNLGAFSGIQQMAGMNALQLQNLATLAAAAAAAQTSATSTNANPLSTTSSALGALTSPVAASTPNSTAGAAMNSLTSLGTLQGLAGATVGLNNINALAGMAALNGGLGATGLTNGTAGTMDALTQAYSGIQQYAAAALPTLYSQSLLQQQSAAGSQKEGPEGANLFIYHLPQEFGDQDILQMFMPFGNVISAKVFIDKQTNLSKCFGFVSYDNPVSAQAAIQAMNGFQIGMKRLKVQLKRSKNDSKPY", "UniProt Q96SN8": "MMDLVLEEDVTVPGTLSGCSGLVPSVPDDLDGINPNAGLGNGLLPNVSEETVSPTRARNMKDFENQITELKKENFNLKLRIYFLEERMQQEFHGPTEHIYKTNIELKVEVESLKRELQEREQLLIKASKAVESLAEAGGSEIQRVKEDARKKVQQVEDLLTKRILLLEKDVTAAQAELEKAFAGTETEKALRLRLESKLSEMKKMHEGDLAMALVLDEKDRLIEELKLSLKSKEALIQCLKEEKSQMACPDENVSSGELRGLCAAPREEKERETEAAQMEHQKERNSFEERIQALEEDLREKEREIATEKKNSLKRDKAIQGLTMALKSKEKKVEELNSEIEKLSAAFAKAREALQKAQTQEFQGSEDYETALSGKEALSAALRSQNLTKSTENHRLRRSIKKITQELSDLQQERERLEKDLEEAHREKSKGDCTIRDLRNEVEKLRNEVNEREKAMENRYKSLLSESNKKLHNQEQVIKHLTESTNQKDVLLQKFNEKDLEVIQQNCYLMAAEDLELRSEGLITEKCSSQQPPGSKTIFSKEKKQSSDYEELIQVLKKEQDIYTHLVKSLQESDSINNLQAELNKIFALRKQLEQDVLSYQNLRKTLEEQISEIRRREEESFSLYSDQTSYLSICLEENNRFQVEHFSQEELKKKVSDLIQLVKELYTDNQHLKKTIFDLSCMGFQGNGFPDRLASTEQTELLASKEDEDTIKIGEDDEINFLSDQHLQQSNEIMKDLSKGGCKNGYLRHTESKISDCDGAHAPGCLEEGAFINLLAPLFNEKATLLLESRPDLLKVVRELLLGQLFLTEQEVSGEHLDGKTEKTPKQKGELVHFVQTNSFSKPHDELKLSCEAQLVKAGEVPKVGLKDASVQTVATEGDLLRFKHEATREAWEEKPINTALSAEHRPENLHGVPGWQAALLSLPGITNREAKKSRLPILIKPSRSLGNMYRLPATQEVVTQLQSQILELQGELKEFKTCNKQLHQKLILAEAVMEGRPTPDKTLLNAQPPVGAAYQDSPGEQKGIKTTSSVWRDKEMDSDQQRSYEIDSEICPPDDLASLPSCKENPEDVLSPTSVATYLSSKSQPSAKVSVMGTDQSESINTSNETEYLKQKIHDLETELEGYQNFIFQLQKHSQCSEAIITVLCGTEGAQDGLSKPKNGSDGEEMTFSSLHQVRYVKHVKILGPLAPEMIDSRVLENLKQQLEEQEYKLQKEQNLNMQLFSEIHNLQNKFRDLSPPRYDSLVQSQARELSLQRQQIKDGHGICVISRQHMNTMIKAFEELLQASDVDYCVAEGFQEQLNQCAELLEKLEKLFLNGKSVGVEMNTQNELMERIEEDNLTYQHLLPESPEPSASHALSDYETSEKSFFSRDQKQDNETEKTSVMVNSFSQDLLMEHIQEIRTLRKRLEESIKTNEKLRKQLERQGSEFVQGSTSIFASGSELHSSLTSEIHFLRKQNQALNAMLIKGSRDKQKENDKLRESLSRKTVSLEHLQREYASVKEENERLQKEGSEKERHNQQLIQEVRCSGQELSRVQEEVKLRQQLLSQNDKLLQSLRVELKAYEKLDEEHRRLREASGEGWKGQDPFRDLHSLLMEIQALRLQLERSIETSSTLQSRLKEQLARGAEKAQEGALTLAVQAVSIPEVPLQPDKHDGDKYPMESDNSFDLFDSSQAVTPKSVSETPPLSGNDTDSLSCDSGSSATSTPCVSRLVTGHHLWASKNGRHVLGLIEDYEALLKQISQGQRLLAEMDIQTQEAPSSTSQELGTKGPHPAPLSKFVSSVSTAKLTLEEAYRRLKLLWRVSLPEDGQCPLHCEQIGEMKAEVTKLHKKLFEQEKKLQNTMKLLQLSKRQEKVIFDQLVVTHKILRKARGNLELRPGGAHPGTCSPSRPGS", "UniProt Q6NVV7": "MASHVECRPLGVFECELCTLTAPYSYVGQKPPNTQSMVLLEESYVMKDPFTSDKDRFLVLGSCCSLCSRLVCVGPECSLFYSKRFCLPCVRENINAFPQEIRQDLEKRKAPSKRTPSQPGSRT", "UniProt Q9H211": "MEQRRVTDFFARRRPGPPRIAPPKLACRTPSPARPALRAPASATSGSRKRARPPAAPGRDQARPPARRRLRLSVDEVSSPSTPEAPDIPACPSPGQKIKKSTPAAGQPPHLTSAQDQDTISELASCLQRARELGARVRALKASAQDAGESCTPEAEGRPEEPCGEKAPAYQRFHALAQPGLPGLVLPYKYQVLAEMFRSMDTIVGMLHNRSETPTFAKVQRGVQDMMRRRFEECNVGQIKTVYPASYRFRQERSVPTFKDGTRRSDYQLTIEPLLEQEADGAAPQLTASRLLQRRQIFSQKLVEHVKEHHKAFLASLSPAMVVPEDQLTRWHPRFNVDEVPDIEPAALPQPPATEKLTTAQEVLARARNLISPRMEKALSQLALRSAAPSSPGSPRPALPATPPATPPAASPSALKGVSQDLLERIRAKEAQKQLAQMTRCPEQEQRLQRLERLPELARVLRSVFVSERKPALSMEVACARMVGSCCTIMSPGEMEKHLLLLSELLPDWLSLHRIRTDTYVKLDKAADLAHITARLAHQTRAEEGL", "UniProt P48960": "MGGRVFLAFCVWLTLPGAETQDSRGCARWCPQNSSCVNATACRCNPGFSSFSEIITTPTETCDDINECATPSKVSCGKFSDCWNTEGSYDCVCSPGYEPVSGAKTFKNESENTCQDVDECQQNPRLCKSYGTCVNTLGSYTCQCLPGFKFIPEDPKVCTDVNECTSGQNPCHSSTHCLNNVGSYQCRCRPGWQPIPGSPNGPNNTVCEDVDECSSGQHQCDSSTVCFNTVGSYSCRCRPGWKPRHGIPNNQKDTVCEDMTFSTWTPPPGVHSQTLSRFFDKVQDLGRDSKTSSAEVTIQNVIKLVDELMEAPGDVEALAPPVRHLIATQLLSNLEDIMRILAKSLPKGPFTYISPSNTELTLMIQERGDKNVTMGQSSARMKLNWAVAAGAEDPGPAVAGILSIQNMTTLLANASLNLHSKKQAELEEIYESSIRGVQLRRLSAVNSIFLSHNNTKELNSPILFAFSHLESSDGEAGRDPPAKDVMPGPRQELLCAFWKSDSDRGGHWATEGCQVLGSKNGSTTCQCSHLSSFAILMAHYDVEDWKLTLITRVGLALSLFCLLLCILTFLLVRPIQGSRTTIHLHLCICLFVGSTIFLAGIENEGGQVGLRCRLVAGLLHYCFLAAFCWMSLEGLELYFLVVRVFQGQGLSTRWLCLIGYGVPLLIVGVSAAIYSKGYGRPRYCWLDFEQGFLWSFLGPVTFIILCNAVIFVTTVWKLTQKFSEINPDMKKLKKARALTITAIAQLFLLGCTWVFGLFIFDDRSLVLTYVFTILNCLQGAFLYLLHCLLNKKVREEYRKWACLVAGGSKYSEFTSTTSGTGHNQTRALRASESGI", "UniProt Q9UPN4": "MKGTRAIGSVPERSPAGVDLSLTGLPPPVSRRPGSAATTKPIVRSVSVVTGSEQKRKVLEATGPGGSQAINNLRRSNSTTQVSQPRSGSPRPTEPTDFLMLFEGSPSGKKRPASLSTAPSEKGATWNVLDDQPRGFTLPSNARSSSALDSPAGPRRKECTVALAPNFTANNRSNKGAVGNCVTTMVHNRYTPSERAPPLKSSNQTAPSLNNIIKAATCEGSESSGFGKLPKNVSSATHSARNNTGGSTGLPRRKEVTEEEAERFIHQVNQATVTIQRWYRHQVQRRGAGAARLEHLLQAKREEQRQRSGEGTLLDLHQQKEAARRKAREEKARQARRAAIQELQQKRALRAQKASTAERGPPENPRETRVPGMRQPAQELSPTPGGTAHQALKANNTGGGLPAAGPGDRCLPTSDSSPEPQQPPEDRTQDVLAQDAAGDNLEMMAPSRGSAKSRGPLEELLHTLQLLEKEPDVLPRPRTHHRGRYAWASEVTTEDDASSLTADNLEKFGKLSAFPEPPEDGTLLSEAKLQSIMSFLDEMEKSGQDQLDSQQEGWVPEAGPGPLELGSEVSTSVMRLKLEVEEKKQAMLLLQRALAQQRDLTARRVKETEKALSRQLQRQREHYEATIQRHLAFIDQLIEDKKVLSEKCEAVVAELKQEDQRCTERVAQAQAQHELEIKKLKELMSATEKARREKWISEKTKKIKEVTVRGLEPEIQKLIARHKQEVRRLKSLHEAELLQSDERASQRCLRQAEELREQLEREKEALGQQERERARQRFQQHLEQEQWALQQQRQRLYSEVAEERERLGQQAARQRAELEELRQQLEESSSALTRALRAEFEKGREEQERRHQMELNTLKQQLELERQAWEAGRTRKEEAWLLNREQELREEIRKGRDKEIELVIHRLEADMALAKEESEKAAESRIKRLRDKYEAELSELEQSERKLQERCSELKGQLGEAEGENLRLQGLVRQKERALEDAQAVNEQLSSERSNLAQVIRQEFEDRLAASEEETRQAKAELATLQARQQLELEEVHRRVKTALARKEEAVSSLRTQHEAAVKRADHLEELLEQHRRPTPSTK", "UniProt Q99832": "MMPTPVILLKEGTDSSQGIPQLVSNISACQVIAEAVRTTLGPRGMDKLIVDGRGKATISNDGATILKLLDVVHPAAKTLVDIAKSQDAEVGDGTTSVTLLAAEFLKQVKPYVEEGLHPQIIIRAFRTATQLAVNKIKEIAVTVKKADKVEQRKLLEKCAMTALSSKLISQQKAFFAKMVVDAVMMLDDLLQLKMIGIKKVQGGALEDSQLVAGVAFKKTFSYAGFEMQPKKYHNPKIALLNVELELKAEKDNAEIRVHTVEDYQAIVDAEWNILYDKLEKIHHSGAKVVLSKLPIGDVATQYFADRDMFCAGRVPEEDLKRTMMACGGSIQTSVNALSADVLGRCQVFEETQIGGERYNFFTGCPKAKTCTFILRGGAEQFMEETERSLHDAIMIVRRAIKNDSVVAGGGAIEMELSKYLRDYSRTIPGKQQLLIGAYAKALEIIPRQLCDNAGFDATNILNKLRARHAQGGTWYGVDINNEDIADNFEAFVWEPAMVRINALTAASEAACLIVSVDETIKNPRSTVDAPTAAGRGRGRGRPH"}, "source": "the supplement of paper PMC12067093", "about": "“Discovery and optimisation of a covalent ligand for TRIM25 and its application to targeted protein ubiquitination” (Chemical Science, 2025)", "note": "The list shows a part of the results.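 Further: competitive profiling in live THP-1 cells: cysteine peptides tagged with an iodoacetamide desthiobiotin (IA-DTB) probe, intensity after compound treatment relative to DMSO-treated cells.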"}
{"compound": "Cc1cc(ccc1-c1ccccc1)C(=O)N1CCCN(CC1)C(=O)CCl [compound 10]", "test": "probe-labelled cysteine peptide fold change vs DMSO (competition) (log2 fold change); higher = less target engagement (more negative = stronger competition)", "conditions": "10 µM; THP-1; incubation time: 4 h"}
{"target": "CDC73_Q6P1J9_145_IEDEECVR (UniProt Q6P1J9)", "probe-labelled cysteine peptide fold change": -0.177}
{"target": "CEP41_Q9BYV8_240_IIILYDDDERLASQAATTMCER (UniProt Q9BYV8)", "probe-labelled cysteine peptide fold change": 0.089}
{"target": "CCT6A_P40227_508_QLLHSCTVIATNILLVDEIMR (UniProt P40227)", "probe-labelled cysteine peptide fold change": 0.147}
{"target": "CCT8_P50990_148_KAHEILPNLVCCSAK (UniProt P50990)", "probe-labelled cysteine peptide fold change": -0.0972}
{"target": "CENPF_P49454_1233_ECLQHELQTIR (UniProt P49454)", "probe-labelled cysteine peptide fold change": 0.051}
{"target": "CCT5_P48643_493_EMNPALGIDCLHK (UniProt P48643)", "probe-labelled cysteine peptide fold change": -0.0731}
{"target": "CD70_P32970_17_RRPYGCVLR (UniProt P32970)", "probe-labelled cysteine peptide fold change": -1.01}
{"target": "CELF2_O95319_85_GCCFVTFYTR (UniProt O95319)", "probe-labelled cysteine peptide fold change": 0.00559}
{"target": "CDK5RAP2_Q96SN8_1811_VSLPEDGQCPLHCEQIGEMK (UniProt Q96SN8)", "probe-labelled cysteine peptide fold change": 0.0699}
{"target": "CFAP298_P57076_83_CVPSGGAVFKK (UniProt P57076)", "probe-labelled cysteine peptide fold change": -0.318}
{"target": "CDC16_Q13042_455_AIGNEVTVDKWEPLLNNLGHVCR (UniProt Q13042)", "probe-labelled cysteine peptide fold change": 0.00676}
{"target": "CDC20_Q12834_364_AVAWCPWQSNVLATGGGTSDR (UniProt Q12834)", "probe-labelled cysteine peptide fold change": -0.067}
{"target": "CEP192_Q8TEP8_1562_APVEVAPCADVVTR (UniProt Q8TEP8)", "probe-labelled cysteine peptide fold change": -0.611}
{"target": "CEP350_Q5VT06_2716_LCTPLLDLLTR (UniProt Q5VT06)", "probe-labelled cysteine peptide fold change": -0.0654}
{"target": "CDPF1_Q6NVV7_7_ASHVECR (UniProt Q6NVV7)", "probe-labelled cysteine peptide fold change": -0.0893}
{"target": "CDK12_Q9NYV4_862_CSNILLNNSGQIK (UniProt Q9NYV4)", "probe-labelled cysteine peptide fold change": -0.0809}
{"target": "CENPF_P49454_2834_EECLSSQK (UniProt P49454)", "probe-labelled cysteine peptide fold change": 0.222}
{"target": "CELF2_O95319_143_CNENDIR (UniProt O95319)", "probe-labelled cysteine peptide fold change": 0.0358}
{"target": "CES1_P23141_285_TTTSAVMVHCLR (UniProt P23141)", "probe-labelled cysteine peptide fold change": 0.0256}
{"target": "CDYL_Q9Y232_571_MELEQANERECEVLK (UniProt Q9Y232)", "probe-labelled cysteine peptide fold change": -0.166}
{"target": "CDC27_P30260_481_GYLALCSYNCK (UniProt P30260)", "probe-labelled cysteine peptide fold change": -0.155}
{"target": "CDT1_Q9H211_163_ASAQDAGESCTPEAEGRPEEPCGEK (UniProt Q9H211)", "probe-labelled cysteine peptide fold change": -0.292}
{"target": "CDC16_Q13042_163_EALKLDVYCFEAFDLLTSHHMLTAQEEK (UniProt Q13042)", "probe-labelled cysteine peptide fold change": 0.122}
{"target": "CDK5_Q00535_83_KLTLVFEFCDQDLKK (UniProt Q00535)", "probe-labelled cysteine peptide fold change": -0.00991}
{"target": "CDK8_P49336_25_ERVEDLFEYEGCK (UniProt P49336)", "probe-labelled cysteine peptide fold change": -0.152}
{"target": "CENPJ_Q9HC77_634_TNPADPISHCNR (UniProt Q9HC77)", "probe-labelled cysteine peptide fold change": -0.114}
{"target": "CDC37_Q16543_64_KVAECQR (UniProt Q16543)", "probe-labelled cysteine peptide fold change": 0.172}
{"target": "CEP164_Q9UPV0_437_ISEHLLDVDVLSPVLGGACR (UniProt Q9UPV0)", "probe-labelled cysteine peptide fold change": -0.298}
{"target": "CDC16_Q13042_194_LCNEEQELLR (UniProt Q13042)", "probe-labelled cysteine peptide fold change": -0.0905}
{"target": "CES1_P23141_274_KGDVKPLAEQIAITAGCK (UniProt P23141)", "probe-labelled cysteine peptide fold change": -0.0673}
{"target": "CD97_P48960_256_DTVCEDMTFSTWTPPPGVHSQTLSR (UniProt P48960)", "probe-labelled cysteine peptide fold change": -0.0984}
{"target": "CDAN1_Q8IWY9_400_LLCFSPALQGR (UniProt Q8IWY9)", "probe-labelled cysteine peptide fold change": 0.131}
{"target": "CEP131_Q9UPN4_218_AATCEGSESSGFGK (UniProt Q9UPN4)", "probe-labelled cysteine peptide fold change": -0.22}
{"target": "CCT7_Q99832_511_INALTAASEAACLIVSVDETIK (UniProt Q99832)", "probe-labelled cysteine peptide fold change": 0.163}
{"target": "CERCAM_Q5T4B2_391_GEVGCFLSHYSIWEEVVAR (UniProt Q5T4B2)", "probe-labelled cysteine peptide fold change": 0.0439}
{"target": "CEP41_Q9BYV8_171_DKPYPDCPFLLLDVR (UniProt Q9BYV8)", "probe-labelled cysteine peptide fold change": 0.208}
{"target": "CENPF_P49454_1790_HDVHQICDK (UniProt P49454)", "probe-labelled cysteine peptide fold change": -0.242}
{"target": "CEP350_Q5VT06_211_FLNDRPAIDALQNSECLIR (UniProt Q5VT06)", "probe-labelled cysteine peptide fold change": -0.364}
{"target": "CDC27_P30260_179+184_FTSLQNFSNCLPNSCTTQVPNHSLSHR (UniProt P30260)", "probe-labelled cysteine peptide fold change": -0.0748}
{"compound": "Cc1cc(ccc1-c1ccccc1)C(=O)N1CCCN(CC1)C(=O)CCl [compound 10]", "test": "probe-labelled cysteine peptide fold change vs DMSO (competition) (log2 fold change); higher = less target engagement (more negative = stronger competition)", "conditions": "50 µM; THP-1; incubation time: 4 h"}
{"target": "CDC73_Q6P1J9_145_IEDEECVR (UniProt Q6P1J9)", "probe-labelled cysteine peptide fold change": 0.00142}
{"target": "CEP41_Q9BYV8_240_IIILYDDDERLASQAATTMCER (UniProt Q9BYV8)", "probe-labelled cysteine peptide fold change": 0.00114}
{"target": "CCT6A_P40227_508_QLLHSCTVIATNILLVDEIMR (UniProt P40227)", "probe-labelled cysteine peptide fold change": 0.462}
{"target": "CCT8_P50990_148_KAHEILPNLVCCSAK (UniProt P50990)", "probe-labelled cysteine peptide fold change": -0.612}
{"target": "CENPF_P49454_1233_ECLQHELQTIR (UniProt P49454)", "probe-labelled cysteine peptide fold change": 0.17}
{"target": "CCT5_P48643_493_EMNPALGIDCLHK (UniProt P48643)", "probe-labelled cysteine peptide fold change": -0.155}
{"target": "CD70_P32970_17_RRPYGCVLR (UniProt P32970)", "probe-labelled cysteine peptide fold change": -0.757}
{"target": "CELF2_O95319_85_GCCFVTFYTR (UniProt O95319)", "probe-labelled cysteine peptide fold change": -0.01}
{"target": "CDK5RAP2_Q96SN8_1811_VSLPEDGQCPLHCEQIGEMK (UniProt Q96SN8)", "probe-labelled cysteine peptide fold change": -0.0886}
{"target": "CFAP298_P57076_83_CVPSGGAVFKK (UniProt P57076)", "probe-labelled cysteine peptide fold change": -0.252}
{"target": "CDC16_Q13042_455_AIGNEVTVDKWEPLLNNLGHVCR (UniProt Q13042)", "probe-labelled cysteine peptide fold change": 0.126}
{"target": "CDC20_Q12834_364_AVAWCPWQSNVLATGGGTSDR (UniProt Q12834)", "probe-labelled cysteine peptide fold change": -0.188}
{"target": "CEP192_Q8TEP8_1562_APVEVAPCADVVTR (UniProt Q8TEP8)", "probe-labelled cysteine peptide fold change": -0.285}
{"target": "CEP350_Q5VT06_2716_LCTPLLDLLTR (UniProt Q5VT06)", "probe-labelled cysteine peptide fold change": -0.155}
{"target": "CDPF1_Q6NVV7_7_ASHVECR (UniProt Q6NVV7)", "probe-labelled cysteine peptide fold change": -0.337}
{"target": "CDK12_Q9NYV4_862_CSNILLNNSGQIK (UniProt Q9NYV4)", "probe-labelled cysteine peptide fold change": -0.0162}
{"target": "CENPF_P49454_2834_EECLSSQK (UniProt P49454)", "probe-labelled cysteine peptide fold change": 0.272}
{"target": "CELF2_O95319_143_CNENDIR (UniProt O95319)", "probe-labelled cysteine peptide fold change": 0.224}
{"target": "CES1_P23141_285_TTTSAVMVHCLR (UniProt P23141)", "probe-labelled cysteine peptide fold change": 0.129}
{"target": "CDYL_Q9Y232_571_MELEQANERECEVLK (UniProt Q9Y232)", "probe-labelled cysteine peptide fold change": -0.174}
{"target": "CDC27_P30260_481_GYLALCSYNCK (UniProt P30260)", "probe-labelled cysteine peptide fold change": 0.268}
{"target": "CDT1_Q9H211_163_ASAQDAGESCTPEAEGRPEEPCGEK (UniProt Q9H211)", "probe-labelled cysteine peptide fold change": -0.434}
{"target": "CDC16_Q13042_163_EALKLDVYCFEAFDLLTSHHMLTAQEEK (UniProt Q13042)", "probe-labelled cysteine peptide fold change": -0.172}
{"target": "CDK5_Q00535_83_KLTLVFEFCDQDLKK (UniProt Q00535)", "probe-labelled cysteine peptide fold change": -0.158}
{"target": "CDK8_P49336_25_ERVEDLFEYEGCK (UniProt P49336)", "probe-labelled cysteine peptide fold change": -0.0999}
{"target": "CENPJ_Q9HC77_634_TNPADPISHCNR (UniProt Q9HC77)", "probe-labelled cysteine peptide fold change": 0.0384}
{"target": "CDC37_Q16543_64_KVAECQR (UniProt Q16543)", "probe-labelled cysteine peptide fold change": -0.253}
{"target": "CEP164_Q9UPV0_437_ISEHLLDVDVLSPVLGGACR (UniProt Q9UPV0)", "probe-labelled cysteine peptide fold change": 0.236}
{"target": "CDC16_Q13042_194_LCNEEQELLR (UniProt Q13042)", "probe-labelled cysteine peptide fold change": -0.174}
{"target": "CES1_P23141_274_KGDVKPLAEQIAITAGCK (UniProt P23141)", "probe-labelled cysteine peptide fold change": 0.19}
{"target": "CD97_P48960_256_DTVCEDMTFSTWTPPPGVHSQTLSR (UniProt P48960)", "probe-labelled cysteine peptide fold change": -0.115}
{"target": "CDAN1_Q8IWY9_400_LLCFSPALQGR (UniProt Q8IWY9)", "probe-labelled cysteine peptide fold change": 0.0957}
{"target": "CEP131_Q9UPN4_218_AATCEGSESSGFGK (UniProt Q9UPN4)", "probe-labelled cysteine peptide fold change": -0.187}
{"target": "CCT7_Q99832_511_INALTAASEAACLIVSVDETIK (UniProt Q99832)", "probe-labelled cysteine peptide fold change": 0.484}
{"target": "CERCAM_Q5T4B2_391_GEVGCFLSHYSIWEEVVAR (UniProt Q5T4B2)", "probe-labelled cysteine peptide fold change": -0.232}
{"target": "CEP41_Q9BYV8_171_DKPYPDCPFLLLDVR (UniProt Q9BYV8)", "probe-labelled cysteine peptide fold change": -0.125}
{"target": "CENPF_P49454_1790_HDVHQICDK (UniProt P49454)", "probe-labelled cysteine peptide fold change": 0.209}
{"target": "CEP350_Q5VT06_211_FLNDRPAIDALQNSECLIR (UniProt Q5VT06)", "probe-labelled cysteine peptide fold change": -0.546}
{"target": "CDC27_P30260_179+184_FTSLQNFSNCLPNSCTTQVPNHSLSHR (UniProt P30260)", "probe-labelled cysteine peptide fold change": -0.468}
